From PubChem BioAssay AID2685 (National Center for Advancing Translational Sciences (NCATS), 2010)
The whole screen tested about 320,000 compounds, of which about 2,100 (0.66%) were called active. The inconclusive results got no clear call from the source; some entries with a clear call stand among them for comparison. The call rests on the fitted dose curve; in most records, active means well fitted inhibition curve with a large enough effect in the signal ratio, with a control signal flat (not every such curve was filed as active); inconclusive means small, poorly fitted or top-dose-only effect, or effect the other way, or a change in a side signal; inactive means flat fitted curve, though single readings scatter; the % refers to the signal ratio. Potencies of inconclusive entries are doubtful fits and often do not repeat.

test: qHTS Assay for Lipid Storage Modulators in Drosophila S3 Cells; details: BODIPY lipid droplet fluorescence, 18-24 h, cells fed with added oleic acid; lipid storage change, negative = inhibition: at 46.1 µM (top of the series) unless noted
Procedure, shortened: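 Drosophila S3 cells loaded with oleic acid (400 uM, as added) and compounds at several concentrations; lipid droplets imaged by 488-nm laser-scanning cytometry, 500–530 nm intensity and object ratio to cell channel. Percent activity normalized to 20 uM Triacsin C.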
On the % scale 0 is the no-effect control and ±100 the full control effect; potency means the concentration at half of the fitted maximal effect.

Lipid storage change, negative = inhibition, inactive:
Cc1ccccc1C(=O)NC1CCN(CC(=O)NCc2ccc(F)cc2)CC1 0.998%
CC(=O)C1=C(O)C(=O)N(CCO)C1c1ccccc1 (stereo not given) -9.46%
CC(=O)Nc1ccc(NC(=O)CSc2nnc(C3CC3)n2C)cc1 -0.569%

Lipid storage change, negative = inhibition, inconclusive:
Oc1c(C(c2cccs2)N2CCC3(CC2)OCCO3)sc2ncnn12 (stereo not given) 61.8%
Cc1ccc(S(=O)(=O)N2CCOCC2)cc1C(=O)OC1CCOC1=O (stereo not given)
Cc1ccc(S(=O)(=O)N(C)c2c(C)ccc(S(=O)(=O)NC(C)(C)C)c2C)cc1 13.9%
O=C(COC(=O)c1cc(Cl)ccc1Cl)Nc1ccc2[nH]c(=O)[nH]c2c1 11.6%
CN1CCN(CCNC(=O)Nc2ccccc2[N+](=O)[O-])CC1 4.93%
COC(=O)c1nccc2c1[nH]c1ccccc12 32.8%
CC1CCN(C(=O)CSc2nnc(Cc3cccn3C)n2CCc2ccccc2)CC1 24.6%
CCCC(=O)Nc1ccc(NC(=O)c2ccccn2)cn1 -3.33%
O=C(NCCc1cnc[nH]1)c1cccs1 52.1%
CCOC(=O)Cc1csc(NC(=O)c2sc3nc4c(C)cc(C)cc4cc3c2N)n1 -68.8%
COc1ccc(C2C(C(=O)NCc3ccccn3)c3cc(OC)c(OC)cc3C(=O)N2C)cc1 (stereo not given) 43.8%
O=C(CN(Cc1ccccc1Cl)C(=O)CNS(=O)(=O)c1ccc(F)cc1)NCC1CCCO1 (stereo not given) -20.2%
CCN(CC)CCCN(Cc1cc2cc3c(cc2[nH]c1=O)OCO3)C(=S)NC -72.9%
O=C(Cn1cccc1C(=O)c1ccccc1)NCc1ccccc1 3.78%
CC(C)NC(=O)COC(=O)c1ccccc1C(=O)c1ccccc1 22.7%
CC(C)c1ccc(NC(=O)CSc2nc(=O)n(CCCN3CCOCC3)c3c2CCC3)cc1 30.8%
Cc1ccc2nc(SCC(=O)NCCc3ccccc3)nc(=O)n2c1
CCOc1cc(/C=C2\C(=O)ON=C2C)ccc1OCc1ccccc1 -32.6%
CC1(C)CC(NC(=O)c2ccc(Cl)cc2Cl)CC(C)(C)N1 -7.49%
Cc1csc(NC(=O)CCc2c(C)nc3cc(-c4cccc(F)c4)nn3c2C)n1 2.78%
CCOc1ccc(C(=O)N[C@H](C(=O)Nc2cccc(S(=O)(=O)N3CCOCC3)c2)C(C)C)cc1
CCCC(C)C(=O)Nc1cc([N+](=O)[O-])ccc1F (stereo not given) -13.1%
Cc1ccc(S(=O)(=O)CC(=O)N(CCCN(C)C)c2nc3ccc(C)cc3s2)cc1 33.7%
COC(=O)C(Cc1ccccc1)NC(=O)CCCC(=O)NCc1cccc(OC)c1 (stereo not given) -52.1%
O=C(Cn1nnc(-c2ccccc2NC(=O)c2ccccc2F)n1)NC1CCCC1 10.9%
COc1ccc2c(CC(=O)Nc3nccs3)coc2c1 33.6%
O=C1NN(c2ccccc2)C(=O)/C1=C/c1coc2ccccc2c1=O 0.0636%
CC(C)c1ccc(NS(=O)(=O)c2ccc3[nH]cc(C(=O)N4CCC(C(N)=O)CC4)c(=O)c3c2)cc1 -20.3%
NC(=O)c1ccc(C2SCC(=O)N2CCc2ccccc2)cc1 (stereo not given) -12.2%
O=C(Nc1nnc(S(=O)(=O)N2CCCCCC2)s1)c1ccccc1 16.8%
CCn1ccnc1CN(C)Cc1cn(-c2cccc(C)c2)nc1-c1cccc(F)c1 -31.7%
CCOC(=O)C1CCCN(S(=O)(=O)c2ccc3ccccc3c2)C1 (stereo not given) -3.36%
Oc1c(C(c2cccs2)N2CCN(c3ccc(F)cc3)CC2)sc2ncnn12 (stereo not given) 10.5%
Clc1cccc(-c2nn3c(COc4ccccc4)nnc3s2)c1 -10.8%
COc1ccc([C@@H]2[C@@H]3C(=O)N(C(C)(C)C)C(=O)[C@@H]3[C@]3(Cc4ccc(Cl)cc4)C(=O)N(c4ccc(C)cc4)C(=O)N23)cc1 15.2%
Cc1ccc2cc(C#N)c(SCC(=O)NCC3CCCO3)nc2c1 (stereo not given) -5.77%
CC(=O)Nc1ccc(N(C(=O)CNC(=O)c2ccco2)C(C(=O)NCc2ccco2)c2ccccc2)cc1 (stereo not given) 39.1%
O=C(Nc1nc2c(Cl)cccc2s1)c1ccc(Br)o1 93%
O=C(Nc1ccc(C(F)(F)F)cc1)C1CCCCN1S(=O)(=O)c1ccccc1 (stereo not given) 0.556%
C=CCOc1ccc(Br)cc1/C=N/O -4.1%
CCN(CC)c1nc(-c2ccccn2)nc(-c2ccccc2)c1C#N -5.83%
CCOC(=O)C1CCCN(C(=O)Cn2cnc3sc(C)c(S(=O)(=O)N4CCOCC4)c3c2=O)C1 (stereo not given) -21.9%
O=C(N/N=C/c1cccs1)c1ccc(NC(=O)c2ccccc2Cl)cc1 -12.5%
CC(C)OC(=O)CSc1nc2c(c(C3CC=CCC3)c1C#N)CCC2 (stereo not given) -18%
COc1ccc(C(=O)N2CCN(c3ccc(NC(=O)c4cccs4)cc3)CC2)cc1 -18%
NC(N)=N/N=C/c1ccc2cccc(OCc3ccccc3)c2n1 -64.9%
COc1ccc(-c2csc(NC(=O)c3ccccc3NS(=O)(=O)c3ccc(F)c(F)c3)n2)cc1 -93.7%
COc1c(C)cccc1C(=O)NCCCNC(=O)c1ccc(C)nc1 -69.7%

Potency, active:
CCCCCn1c(=O)[nH]c2cc(C(=O)N3CCN(C(=O)OCC)CC3)ccc2c1=O 3.66 µM

Potency, inconclusive:
CCOC(=O)c1ccccc1NC(=O)COC(=O)CCNS(=O)(=O)c1ccccc1 20.6 µM [falling, partial curve, poor fit]
Cc1cc(C)c(NC(=O)CSc2nc3ncc(Cl)cc3[nH]2)c(C)c1 0.116 µM [activator, full curve, poor fit]
COc1ccc(CN(C)C(=O)c2ccc(NS(=O)(=O)c3ccc(F)cc3)cc2)c(OC)c1OC 23.1 µM [falling, single point]
CCn1c(=O)n(CC)c2cc(NC(=O)C(C)c3ccccc3)c(Br)cc21 (stereo not given) 0.184 µM [falling, full curve, poor fit]
O=C(/C=C/c1ccco1)NC(=S)Nc1cc(-c2nc3ccccc3s2)ccc1Cl 18.4 µM [falling, single point]
CCOC(=O)c1cc2n(c1C)-c1ccccc1C2=O 18.4 µM [falling, single point]
Cc1c(Cl)cccc1NC(=O)c1ccc(OCC(=O)NCc2ccccc2)cc1 29.1 µM [falling, single point]
COc1ccc(OCc2nc(N)nc(Nc3ccccc3OC)n2)cc1 3.66 µM [falling, single point]
Cc1cccc(-n2ccc(=O)c(C(=O)Nc3ccc(S(=O)(=O)N4CCOCC4)cc3)n2)c1 16.4 µM [falling, partial curve, poor fit]
CCNS(=O)(=O)c1ccc(CCC(=O)N2CCCC2)cc1 6.51 µM [falling, single point]
COc1ccc(C(=O)COC(=O)c2nc3nccc(C)n3n2)cc1F 29.1 µM [falling, single point]
COc1ccccc1NC(=O)Cn1cnc2c(oc3nc4c(cc32)CCCC4)c1=O 0.116 µM [falling, full curve, poor fit]
COc1cc(C(=O)C(=O)c2ccc(O)c(OC)c2)ccc1O 0.0046 µM [activator, full curve]
O=C(O)CNS(=O)(=O)c1cc(Cl)c(Cl)cc1Cl 29.1 µM [falling, single point]
CC(OC(=O)Cn1cnc2c1c(=O)n(C)c(=O)n2C)C(=O)N(C)c1ccccc1 (stereo not given) 0.731 µM [falling, partial curve, poor fit]
O=C(c1cc2c(s1)-c1ccccc1S(=O)(=O)C2)N1CCN(Cc2ccccc2)CC1 0.651 µM [rising, partial curve]
O=C(NC1CCCCC1)c1ccc(S(=O)(=O)NCc2ccco2)cc1 29.1 µM [activator, single point]
O=C(CCCc1ccccc1)Nc1ccnn1C1CCN(Cc2ccccc2)CC1 5.8 µM [activator, full curve]
Cc1onc(-c2c(F)cccc2Cl)c1C(=O)NC(=S)Nc1c(C)n(C)n(-c2ccccc2)c1=O 23.1 µM [rising, partial curve]
CC(=O)Nc1ccc2nc(NC(=O)c3ccc([N+](=O)[O-])o3)sc2c1 8.2 µM [falling, partial curve]
COCCNC(=O)C(c1ccc(C)cc1)N(C(=O)CCC(=O)Nc1ccccn1)C1CCCCC1 (stereo not given) 0.0052 µM [activator, full curve, poor fit]
CCOC(=O)C1CCN(C(=O)Cn2nc(C)c3c(C)n(-c4ccccc4)nc3c2=O)CC1 6.51 µM [activator, full curve]
CCOC(=O)c1cc(NC(=O)N2CCOCC2)c(C)nc1C 1.84 µM [activator, partial curve, poor fit]

Reprinted at random: 4 entries already listed, in no set order.
Potency, inconclusive:
Cc1cc(C)c(NC(=O)CSc2nc3ncc(Cl)cc3[nH]2)c(C)c1 0.116 µM [activator, full curve, poor fit]
COc1ccccc1NC(=O)Cn1cnc2c(oc3nc4c(cc32)CCCC4)c1=O 0.116 µM [falling, full curve, poor fit]
COc1ccc(OCc2nc(N)nc(Nc3ccccc3OC)n2)cc1 3.66 µM [falling, single point]
CC(=O)Nc1ccc2nc(NC(=O)c3ccc([N+](=O)[O-])o3)sc2c1 8.2 µM [falling, partial curve]
